Drawing on article doi:10.1101/2024.10.30.620894 (bioRxiv, 2024), this text covers binding for one molecule.

No constants are given. Whether binding was seen depends on the method and setting. A result given as binding can be weak or reduced; the word gives no strength.

Assay [1] concerns the target VLDLR(28-797)Δ(751-779)-C-tag (VLDLR ectodomain, VLDLR-ed) (human) (UniProt P98155). In words: pull-down.
For assay [2] the target is unchanged. In words: ELISA.

B1: wild-type clusterin (WT-Clu) (natural protein, human)
chain 1: DQTVSDNELQEMSNQGSKYVNKEIQNAVNGVKQIKTLIEKTNEERKTLLSNLEEAKKKKEDALNETRESETKLKELPGVCNETMMALWEECKPCLKQTCMKFYARVCRSGSGLVGRQLEEFLNQSSPFYFWMNGDRIDSLLENDRQQTHMLDVMQDHFSRASSIIDELFQDRFFTREPQDTYHYLPFSLPHRRPHFFFPKSRIVR
chain 2: SLMPFSPYEPLNFHAMFQPFLEMIHEAQQAMDIHFHSPAFQHPPTEFIREGDDDRTVCREIRHNSTGCLRMKDQCDKCREILSVDCSTNNPSQAKLRRELDESLQVAERLTRKYNELLKSYQWKMLNTSSLLEQLNEQFNWVSRLANLTQGEDQYYLRVTTVASHTSDSDVPSGVTEVVVKLFDSDPITVTVPVEVSRKNPKFMETVAEKALQEYRKKHREE
modifications: N-glycans (six in the whole protein) | N-glycans (six in the whole protein)
Consider B1, for which the binding entry in assay [1] and in assay [2] was “binds” each time.
